## Primary screen of a compound library

Amino acid sequences for entries named in this document (tags omitted). Residues count along the entry.
UniProt Q4DA54, 1-478: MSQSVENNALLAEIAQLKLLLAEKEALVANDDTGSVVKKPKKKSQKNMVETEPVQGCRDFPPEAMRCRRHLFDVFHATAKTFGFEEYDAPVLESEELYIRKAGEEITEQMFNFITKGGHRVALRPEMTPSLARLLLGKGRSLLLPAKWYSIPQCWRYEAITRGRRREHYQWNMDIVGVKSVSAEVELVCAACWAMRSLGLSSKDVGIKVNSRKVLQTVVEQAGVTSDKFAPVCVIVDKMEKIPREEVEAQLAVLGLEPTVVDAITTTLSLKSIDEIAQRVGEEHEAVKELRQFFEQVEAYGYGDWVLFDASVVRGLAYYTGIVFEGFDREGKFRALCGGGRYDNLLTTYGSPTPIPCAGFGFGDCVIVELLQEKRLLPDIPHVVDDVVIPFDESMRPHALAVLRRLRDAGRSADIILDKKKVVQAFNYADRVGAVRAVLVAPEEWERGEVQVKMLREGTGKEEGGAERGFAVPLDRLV

Measurements from “University of Dundee, Small-Polar-MMV Screening Library” (2021), ChEMBL document CHEMBL3988442.

The filed quantity is “Percent Effect” (%).
The record does not define 0% and 100%; most values in the screen are far below 50% and negative numbers occur (in some assays of this library far below -100).
The compounds are a random part of those screened.

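Histidine-tRNA ligase, Trypanosoma cruzi CL Brener (UniProt Q4DA54). Enzyme assay of histidyl-tRNA synthetase; the read-out is not stated. Compounds at 30 µM. Direction is inferred from retests: higher values go with stronger inhibition. Of about 69,000 compounds tested this way, about 31 (0.045%) reached 50% or more in at least one test.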

structure	effect
CCCc1nnc(N(C)CC2CCN(CC(C)C)C2)o1 (stereo not given)	7.182
CCN(CC1CN(Cc2c(C)noc2C)CCO1)c1cccnn1 (stereo not given)	13.33
Cn1cccc1-c1cc(C(=O)N2CC(c3cccnc3)C2)[nH]n1	4.132
CN(Cc1cc2n(n1)CCNC2)Cc1n[nH]c2c1CCCCC2	5.579
CC(C)CCc1noc(C[S+]([O-])CC(=O)NCc2ccccc2)n1 (stereo not given)	-1.657
Cc1cccc(CN2CCCC2c2cccc(CCC(=O)O)n2)c1 (stereo not given)	13.33
Cc1cc(NC(=O)CN2CCn3c(C)nnc3C2)no1	-1.681
COc1cccc(OCC2CCCN(C(=O)c3cnc(C)nc3O)C2)c1 (stereo not given)	1.667
CSc1ccc(NCC(=O)NCC2CC2)cc1F	12.05
O=C(c1ccco1)N1CCCC(c2cc(C(F)F)n3ncnc3n2)C1 (stereo not given)	1.622
Cc1cc(C)n(C2CCCN(C(=O)Cc3cn4ccsc4n3)C2)n1 (stereo not given)	4.399
COc1cc(Cl)c(CN2CCC(C(N)=O)C2)cc1Cl (stereo not given)	8.808
CCOC1CC2(CCN(CCO)CC2)c2ccc(C)cc21 (stereo not given)	3.448
CCOCc1cccc(NC(=O)C2COCCO2)c1 (stereo not given)	5.102
CC(C)c1nc(C(=O)N2CCCC(n3cncn3)C2)c[nH]1 (stereo not given)	1.88
COC(C)(CNS(=O)(=O)c1cccnc1)c1ccccc1F (stereo not given)	4.848
Cc1cnc(C(=O)N2CCCN(Cc3csc(C)n3)CC2)cn1	4.132
COCc1c(C(=O)N2CCCC(C(=O)c3ccccc3)C2)noc1C (stereo not given)	3.333
CC(=O)NCC(=O)N1CCN(Cc2cccnc2)c2ncccc2C1	5.102
COCCN1C[C@@H]2CN(Cc3ccoc3)CCC[C@]2(C(=O)O)C1	9.836
Cc1ncc(-c2ccnc(NCCc3ccc(F)cc3)n2)c(=O)[nH]1	6.78
CCN(CC)C[C@H]1CN2CC[C@H]1C[C@@H]2CNC(=O)c1ccco1	6.522
CC(O)CCN(C)S(=O)(=O)Cc1ccc(Cl)c(Cl)c1 (stereo not given)	2.941
CC(C)S(=O)(=O)NCC1CCCN(C(=O)c2ccc(F)cc2)C1 (stereo not given)	0
CC(C)n1ccnc1CN1CCCN(C(=O)CN(C)C2CC2)CC1	5.07
Cc1ccc2c(n1)N(CC1CC1)CCN(C(=O)NC1CC1)C2	3.922
Cc1nc(NC2CCS(=O)(=O)CC2)cc(C2CCCNC2)n1 (stereo not given)	0.5405
CC(NC1(CNC(=O)Cn2cccn2)CCOCC1)c1ccccc1 (stereo not given)	1.695
CCC(C)NC(=O)Cn1c(Nc2cc(C)cc(C)c2)nc(C)cc1=O (stereo not given)	15
Cc1cccnc1N1CCC(c2nccn2Cc2cscn2)CC1	15.64
CC1=C(C(=O)N(C)Cc2noc3c2CCCC3)C(C)NC(=O)N1 (stereo not given)	13.13
Cc1nnc(CSc2ccccn2)o1	7.937
CCc1c(C(=O)N2CC[C@H](N3CCOCC3)[C@H](CCCO)C2)csc1C	-1.093
O=C1CC[C@@H]2[C@@H](CCN2C(=O)C2CCOCC2)N1CC1CC1	0
CC(C)NC(=O)N1CCN2C(=O)OC[C@H]2C1	-1.493
Cn1ccnc1CN1CCCC2(CCN(CC3CCCO3)CC2)C1 (stereo not given)	5.882
Cc1cnn(CC2CCCN2Cc2nnc(C3CC3)o2)c1 (stereo not given)	-2.907
CN(CCSc1nncn1C(C)(C)C)c1ccccc1	5.357
Fc1ccc2[nH]c(C3CCCN3Cc3c[nH]cn3)nc2c1 (stereo not given)	0
CC(CCN1CCCn2nc(CNS(C)(=O)=O)cc2C1)c1ccccc1 (stereo not given)	3.061
Cc1cc(NC(=O)CN2CCn3c(nnc3C3CC3)C2)no1	0
CCS(=O)(=O)N1CCc2ccc(NC(=O)NC(C)(C)C)cc21	8.543
c1coc(CN2CCO[C@H]3[C@H](OCC4CC4)CC[C@@H]32)c1	10.61
COc1cc(CNC(=O)C(C)SC)cc(Br)c1OC (stereo not given)	16.33
O=C(c1cn(-c2ccc(C(F)(F)F)cn2)nn1)N1CCCCCC1	3.911
Cc1cc(F)ccc1N1CCCC(NC(=O)CCCn2ccnc2)C1 (stereo not given)	4.478
CS(=O)(=O)NCC1CCCCN1C(=O)c1csc(-c2ccsc2)n1 (stereo not given)	2.703
CC(C)c1nc(Cn2cncn2)n(-c2ccccn2)n1	7.071
c1ccc(-c2nnc(CN3CCOC(Cn4cccn4)C3)o2)cc1 (stereo not given)	3.429
COc1cc(NCc2c(C)noc2C)c(C(=O)N(C)C)cc1OC	2.762
CN(C)c1ncnc2c1CCN(c1ccccc1)CC2	5.747
COCCCNc1nccc(-c2c[nH][nH]c2=O)n1	2.642
COc1cc(C(=O)N2CC3(CCNCC3)c3cc(Cl)ccc32)ccn1	4.327
COCC(=O)N1CCC2(CCc3ccc(F)cc32)CC1	3.681
c1cnc(N2CCN(Cc3nnnn3C3CC3)CC2)nc1	1.571
CCc1ccc(CC)c(NCC(=O)N2CCCC(NC(C)=O)C2)c1 (stereo not given)	11.11
Cc1nc(NCc2nnc(C)n2C)c2c(CC(C)C)csc2n1	7.035
COCCNC(C)c1ccc(-c2cccnc2)cc1 (stereo not given)	-2.02
Cc1cccc(CN2C[C@@H]3OCCN(c4ccnc(N(C)C)n4)[C@@H]3C2)c1	10.05
CC(=O)NCCNC(=O)c1cccc(Cn2nc(C)cc2C)c1	3.125
CCOc1ccccc1CC(=O)N1C[C@@H](C(=O)O)[C@H](c2ccncc2)C1	7
Cc1cc(C)c(C#N)c(N2CCC(Cc3ccccc3)CC2)n1	6.341
CCN(C(=O)CNC1CCc2ncnn2C1)C1=CCCCC1 (stereo not given)	6.878
O=C(Nc1cccc2c1CCCC2)c1cccc(CN2CC[C@H](O)C2)c1	3.865
CCSCCC(=O)Nc1ncn(Cc2ccccc2)n1	5.747
CCc1nnc2n1CCN(C(C(=O)NC1CC1)c1ccc(F)cc1)C2 (stereo not given)	6.736
CCn1nc(C)c2c1cnn2CCNS(=O)(=O)CC	6.696
CCc1cccc(-n2nnc(C(=O)O)c2-c2ccncc2)c1	-1.22
O=C(NCCN1CCOCC1)Nc1cc(F)ccc1-n1cccn1	9.524
CC(C)NC(=O)N1CCC2(CC(C(=O)NCc3cccnc3)=NO2)C1 (stereo not given)	1.622
c1cncc(-c2noc(CN3CCc4cncnc4C3)n2)c1	11.18
COc1cccc(CNC(=O)C(c2cccc(F)c2)N2CCOCC2)c1 (stereo not given)	1.087
COc1ccc2c(c1)OCC(Cc1ccc(CN)cn1)C2 (stereo not given)	6.349
Cc1ccc2c(n1)N(C)CCN(Cc1cnn(C)c1)C2	1.676
c1ccc(CN2CCC(NCCSc3cnn[nH]3)C2)cc1 (stereo not given)	3.03
COc1ccccc1OCCc1nnc(NC(=O)C2CC23CCC3)s1 (stereo not given)	-3.39
CC(C)N1CCc2[nH]nc(C(=O)N3CCN(C)CC3)c2C1	5.825
CCN(CCc1nc2cc(C)ccc2[nH]1)C(=O)[C@@H](N)COC	1.622
CC(C)Nc1ncc(-c2ccncc2)c([C@@H]2CCCO2)n1	15.41
NC(=O)C1CCN(CCCNC(=O)Nc2nccs2)CC1	11.44
O=C(c1ccsc1)N1CCc2c(CNc3ncccn3)n[nH]c2C1	1.622
CC(=O)NCC(=O)N1CCc2nc(-c3ccccc3)nc(C)c2CC1	7.362
CCS(=O)(=O)N1CCC2(CC1)CN(c1cccnc1)C(=O)CO2	6.349
CC1=N[C@@]2(CC[C@@H]3CN(Cc4ccccc4F)C[C@@H]32)C(=O)N1CC1CC1	5.882
CCc1[nH]c2c(CNc3cnccn3)cc(F)cc2c1C	16.8
Cc1nn(C)c(N(C)C)c1CNCCCN(C)S(C)(=O)=O	0
Cc1cc(NC(=O)CN2CCCC2c2noc(C3CC3)n2)n(C)n1 (stereo not given)	0.565
CN(C)C(=O)COC[C@]12COC[C@H]1CN(CCc1ccccc1)C2	4.673
Cn1cc(CN2CCC(F)(F)C3(CCN(c4ncccn4)C3)C2)cn1 (stereo not given)	5
O=C(Nc1cccc(CN2CCOC2=O)c1)N1CCCC1	2.232
CN1CCCN(C(=O)c2cccc(S(=O)(=O)NCC3(C)COC3)c2)CC1	-0.5128
CN(CC1Cc2ccccc2CN1C)C(=O)CSc1ccccn1 (stereo not given)	0.5128
COc1ccc(-c2noc([C@@H]3C[C@@H](O)CN3C3CCN(C)CC3)n2)cc1	4.348
CC(=O)N(Cc1ncc(C(C)C)o1)C1CCN(CCn2cncn2)C1 (stereo not given)	9.621
CCCNC(=O)C1CCN(Cc2csc(CC)n2)CC1	9.143

For reference, 11 entries once more:

structure	effect
CC(C)NC(=O)N1CCN2C(=O)OC[C@H]2C1	-1.493
COc1cc(NCc2c(C)noc2C)c(C(=O)N(C)C)cc1OC	2.762
CC(C)c1nc(C(=O)N2CCCC(n3cncn3)C2)c[nH]1 (stereo not given)	1.88
CCCc1nnc(N(C)CC2CCN(CC(C)C)C2)o1 (stereo not given)	7.182
Cc1nnc(CSc2ccccn2)o1	7.937
CC1=N[C@@]2(CC[C@@H]3CN(Cc4ccccc4F)C[C@@H]32)C(=O)N1CC1CC1	5.882
Cc1cc(NC(=O)CN2CCCC2c2noc(C3CC3)n2)n(C)n1 (stereo not given)	0.565
CC(NC1(CNC(=O)Cn2cccn2)CCOCC1)c1ccccc1 (stereo not given)	1.695
Cc1cc(F)ccc1N1CCCC(NC(=O)CCCn2ccnc2)C1 (stereo not given)	4.478
O=C(NCCN1CCOCC1)Nc1cc(F)ccc1-n1cccn1	9.524
Cc1cnc(C(=O)N2CCCN(Cc3csc(C)n3)CC2)cn1	4.132